# Laboratory results as given in article PMC3556083.
# Results are given in words; binding and its absence hold for the method and conditions named. Binding seen in cells or lysates may run through a third protein. A yes stands for co-enrichment or nearness to the bait. Other partners may have been found.
# Target: β2-adrenergic receptor (UniProt P07550)
# Experiment: affinity purification with mass spectrometry; purified Flag-β2AR in rHDL immobilised on M1 anti-Flag resin, occupied by 50 µM BI-167107 (full agonist) or 50 µM carazolol (inverse agonist); adult rat heart cytosol (10 mg/ml, 4 mM CaCl2) overnight at 4°C; eluted with FLAG peptide and EDTA; gel slices, LC-MS; proteins of the M1 resin, empty rHDL and Ni-NTA controls subtracted; hits of either or both samples; only the target purified
row,Binder,binding
1,"IDH3G (protein, UniProt P41565 40-393) SSQQTIPPSAKYGGRHTVTMIPGDGIGPELMLHVKSVFRHACVPVDFEEVHVSSNADEEDIRNAIMAIRRNRVALKGNIETNHDLPPSHKSRNNILRTSLDLYANVIHCKSLPGVVTRHKDIDILIVRENTEGEYSSLEHESVAGVVESLKIITKAKSLRIAEYAFKLAQESGRKKVTAVHKANIMKLGDGLFLQCCREVAARYPQITFDSMIVDNTTMQLVSRPQQFDVMVMPNLYGNIVNNVCAGLVGGPGLVAGANYGHVYAVFETATRNTGKSIANKNIANPTATLLASCMMLDHLKLHSYATSIRKAVLASMDNENMHTPDIGGQGTTSQAIQDIIRHIRIINGRAVEA",binds
2,"FABP4 (protein, UniProt P70623 1-132) MCDAFVGTWKLVSSENFDDYMKEVGVGFATRKVAGMAKPNLIISVEGDLVVIRSESTFKNTEISFKLGVEFDEITPDDRKVKSIITLDGGVLVHVQKWDGKSTTIKKRRDGDKLVVECVMKGVTSTRVYERA",binds
3,"HK2 (protein, UniProt P27881 1-917) MIASHMIACLFTELNQNQVQKVDQFLYHMRLSDETLLEISRRFRKEMEKGLGATTHPTAAVKMLPTFVRSTPDGTEHGEFLALDLGGTNFRVLRVRVTDNGLQRVEMENQIYAIPEDIMRGSGTQLFDHIAECLANFMDKLQIKEKKLPLGFTFSFPCHQTKLDESFLVSWTKGFKSSGVEGRDVVDLIRKAIQRRGDFDIDIVAVVNDTVGTMMTCGYDDQNCEIGLIVGTGSNACYMEEMRHIDMVEGDEGRMCINMEWGAFGDDGTLNDIRTEFDREIDMGSLNPGKQLFEKMISGMYMGELVRLILVKMAKAELLFQGKLSPELLTTGSFETKDVSDIEEDKDGIEKAYQILMRLGLNPLQEDCVATHRICQIVSTRSASLCAATLAAVLWRIKENKGEERLRSTIGVDGSVYKKHPHFAKRLHKAVRRLVPDCDVRFLRSEDGSGKGAAMVTAVAYRLADQHRARQKTLESLKLSHEQLLEVKRRMKVEMEQGLSKETHAVAPVKMLPTYVCATPDGTEKGDFLALDLGGTNFRVLLVRVRNGKRRGVEMHNKIYSIPQEVMHGTGEELFDHIVQCIADFLEYMGMKGVSLPLGFTFSFPCQQNSLDQSILLKWTKGFKASGCEGEDVVTLLKEAIHRREEFDLDVVAVVNDTVGTMMTCGYEDPHCEVGLIVGTGSNACYMEEMRNVELVDGEEGRMCVNMEWGAFGDNGCLDDLRTVFDVAVDELSLNPGKQRFEKMISGMYLGEIVRNILIDFTKRGLLFRGRISERLKTRGIFETKFLSQIESDCLALLQVRAILRHLGLESTCDDSIIVKEVCTVVARRAAQLCGAGMAAVVDKIRENRGLDNLKVTVGVDGTLYKLHPHFAKVMHETVRDLAPKCDVSFLESEDGSGKGAALITAVACRIREAGQR",binds
4,"CPT2 (protein, UniProt P18886 26-658) SAVSGPDDYLQHSIVPTMHYQDSLPRLPIPKLEDTMKRYLNAQKPLLDDSQFRRTEALCKNFETGVGKELHAHLLAQDKQNKHTSYISGPWFDMYLTARDSIVLNFNPFMAFNPDPKSEYNDQLTRATNLTVSAVRFLKTLQAGLLEPEVFHLNPSKSDTDAFKRLIRFVPPSLSWYGAYLVNAYPLDMSQYFRLFNSTRIPRPNRDELFTDTKARHLLVLRKGHFYVFDVLDQDGNIVNPLEIQAHLKYILSDSSPVPEFPVAYLTSENRDVWAELRQKLIFDGNEETLKKVDSAVFCLCLDDFPMKDLIHLSHTMLHGDGTNRWFDKSFNLIVAEDGTAAVHFEHSWGDGVAVLRFFNEVFRDSTQTPAITPQSQPAATNSSASVETLSFNLSGALKAGITAAKEKFDTTVKTLSIDSIQFQRGGKEFLKKKQLSPDAVAQLAFQMAFLRQYGQTVATYESCSTAAFKHGRTETIRPASIFTKRCSEAFVRDPSKHSVGELQHMMAECSKYHGQLTKEAAMGQGFDRHLYALRYLATARGLNLPELYLDPAYQQMNHNILSTSTLNSPAVSLGGFAPVVPDGFGIAYAVHDDWIGCNVSSYSGRNAREFLHCVQKCLEDIFDALEGKAIKT",binds
5,"COQ3 (protein, UniProt Q63159 87-345) STSQTVDSKEVKTFQALAHSWWDEQGKFAPLHSMNDLRVPFIRDNLLKTSTNHDPGKPLSGMKILDVGCGGGLLTEPLGRLGASVVGIDPVAENIKIAQHHKSFDPVLDKRIQYRVCSLEETLNENAECFDAVVASEVVEHVNNLEMFIQCCYQVLKPGGSLFITTVNKTQLSYVLGIVFSEQIAGIVPKGTHTWEKFVSPEKLESILEPNGLSVETVAGMVYNPFSGYWHWTENTSLNYAAHAVRARAQEHLEPAESA",binds
6,"PCCA (protein, UniProt P14882 62-737) SVEYEPKEKTFDKILIANRGEIACRVIKTCRKMGIRTVAIHSDVDASSVHVKMADEAVCVGPAPTSKSYLNMDAIMEAIKKTGAQAVHPGYGFLSENKEFAKCLAAEDVTFIGPDTHAIQAMGDKIESKLLAKRAKVNTIPGFDGVLKDADEAVRIAREIGYPVMIKASAGGGGKGMRIPWDDEETRDGFRFSSQEAASSFGDDRLLIEKFIDNPRHIEIQVLGDKHGNALWLNERECSIQRRNQKVVEEAPSIFLDPETRRAMGEQAVAWPKAVKYSSAGTVEFLVDSQKNFYFLEMNTRLQVEHPVTECITGLDLVQEMILVAKGYPLRHKQEDIPISGWAVECRVYAEDPYKSFGLPSIGRLSQYQEPIHLPGVRVDSGIQPGSDISIYHDPMISKLVTYGSDRAEALKRMEDALDSYVIRGVTHNIPLLREVIINTRFVKGDISTKFLSDVYPDGFKGHMLTPSERDQLLAIASSLFVASQLRAQRFQEHSRVPVIRPDVAKWELSVKLHDEDHTVVASNNGPTFNVEVDGSKLNVTSTWNLASPLLSVNVDGTQRTVQCLSPDAGGNMSIQFLGTVYKVHILTKLAAELNKFMLEKVPKDTSSVLRSPKPGVVVAVSVKPGDMVAEGQEICVIEAMKMQNSMTAGKMGKVKLVHCKAGDTVGEGDLLVELE",binds
7,"ACBD3 (protein, UniProt Q7TNY6 1-526) MAAQLNVEQLEVSLDGLTLSPDSEERPGAEGAPLQTPPSSPPRDGLGSGTAGQQREPGEAAAEGAAEEARRMEQHWGFGLEELYGLALRFYKIKDGKAFHPTYEEKLKFVALHKQVLLGPYNPDTSPEVGFFDVLGNDRRREWAALGNMSKEDAMVEFVKLLNKCCPLLSAYVASHRIEKEEEEKRRKAEEERRQREEEERERLQKEEEKRKREEEDRLRREEEERRRIEEERLRLEQQKQQIMAALNSQTAVQFQQYAAQQYPGNYEQQQILIRQLQEQHYQQYMQQLYQVQLAQQQAALQKQQEVVVAGASLPASTKVNTAGASDPLPVNGQAKTHTENPEKVLEPEAAEEALENGPKDSLPVIAAPSMWTRPQIKDFKEKIRQDADSVITVRRGEVVTVRVPTHEEGSYLFWEFATDSYDIGFGVYFEWTDSPNAAVSVHVSESSDDEEEEEEENVTCEEKAKKNVNKPLLDEIVPVYRRDCHEEVYAGSHQYPGRGVYLLKFDNSYSLWRSKSVYYRVYYTR",binds
8,"IDH3A (protein, UniProt Q99NA5 28-366) AGGVQTVTLIPGDGIGPEISASVMKIFDAAKAPIQWEERNVTAIQGPGGKWMIPPEAKESMDKNKMGLKGPLKTPIAAGHPSMNLLLRKTFDLYANVRPCVSIEGYKTPYTDVNIVTIRENTEGEYSGIEHVIVDGVVQSIKLITEGASKRIAEFAFEYARNNHRSNVTAVHKANIMRMSDGLFLQKCREVAENCKDIKFNEMYLDTVCLNMVQDPSQFDVLVMPNLYGDILSDLCAGLIGGLGVTQSGNIGANGVAIFESVHGTAPDIAGKDMANPTALLLSAVMMLRHMGLFDHAAKIEAACFATIKDGKSLTKDLGGNSKCSDFTEEICRRVKDLD",binds

# Continued, values first:
row,binding,Binder
1,binds,"SDHB (protein, UniProt P21913 31-282) AQTAAAAAPRIKTFAIYRWDPDKAGDKPRMQTYKVDLNKCGPMVLDALIKIKNEIDSTLTFRRSCREGICGSCAMNINGGNTLACTRRIDTDLGKVSKIYPLPHMYVIKDLVPDLSNFYAQYKSIEPYLKKKDESQEGKQQYLQSIEDREKLDGLYECILCACCSTSCPSYWWNGDKYLGPAVLMQAYRWMIDSRDEFTEERLAKLQDPFSLYRCHTIMNCTQTCPKGLNPGKAIAEIKKMMATYKEKRALA"
2,binds,"PITPNB (protein, UniProt P53812 1-271) MVLIKEFRVVLPCSVQEYQVGQLYSVAEASKNETGGGEGIEVLKNEPYENDGEKGQYTHKIYHLKSKVPAFVRMIAPEGSLVFHEKAWNAYPYCRTIVTNEYMKDDFFIKIETWHKPDLGTLENVHGLDPNTWKTVEIVHIDIADRSQVEPADYKADEDPALFQSVKTKRGPLGPNWKKELANTPDCPKMCAYKLVTIKFKWWGLQSKVENFIQKQEKRIFTNLHRQLFCWIDKWIDLTMEDIRRMEDETQKELETMRKKGSVRGTSAADA"
3,binds,"RAB5A (protein, UniProt M0RC99 1-215) MANRGATRPNGPNTGNKICQFKLVLLGESAVGKSSLVLRFVKGQFHEFQESTIGAAFLTQTVCLDDTTVKFEIWDTAGQERYHSLAPMYYRGAQAAIVVYDITNEESFSRAKNWVKELQRQASPNIVIALSGNKADLANKRAVDFQEAQSYADDNSLLFMETSAKTPMNVNEIFMAIAKKLPKNEPQNPGANSARGRGVDLTEPAQPARSQCCSN"
4,binds,"PPM1A (protein, UniProt P20650 1-382) MGAFLDKPKMEKHNAQGQGNGLRYGLSSMQGWRVEMEDAHTAVIGLPSGLETWSFFAVYDGHAGSQVAKYCCEHLLDHITNNQDFKGSAGAPSVENVKNGIRTGFLEIDEHMRVMSEKKHGADRSGSTAVGVLISPQHTYFINCGDSRGLLCRNRKVHFFTQDHKPSNPLEKERIQNAGGSVMIQRVNGSLAVSRALGDFDYKCVHGKGPTEQLVSPEPEVHDIERSEEDDQFIILACDGIWDVMGNEELCDFVRSRLEVTDDLEKVCNEVVDTCLYKGSRDNMSVILICFPNAPKVSAEAVKKEAELDKYLENRVEEIIKKQGEGVPDLVHVMRTLASENIPSLPPGGELASKRNVIEAVYNRLNPYKNDDTDSASTDDMW"
5,binds,"PLA2G16 (protein, UniProt P53817 1-160) MPIPEPKPGDLIEIFRPMYSHWAIYVGDGYVIHLAPPSEIPGAGAASIMSALTDKAIVKKELLRDVAGKDKYQVNNKHDKEYTPLPLNKIIQRAEELVGQEVLYRLTSENCEHFVNELRYGVPRSDQVRDAVKVATVTGVGLAALGLIGVMLSRNKKQKQ"
